Measurements from publication PMC2700083, “A covalent peptide inhibitor of RGS4 identified in a focused one-bead, one compound library screen” (BMC Pharmacology, 2009).
These are yes or no findings as the source states them, for the method shown. Some binding calls cover weakened binding; strength is not graded here.

Sequences of proteins named here, by UniProt entry; tags and fusion partners are left off. A change or cut given only in a name is not applied to a line headed by its entry. Residues count along the entry.
UniProt P49799, residues 52-205: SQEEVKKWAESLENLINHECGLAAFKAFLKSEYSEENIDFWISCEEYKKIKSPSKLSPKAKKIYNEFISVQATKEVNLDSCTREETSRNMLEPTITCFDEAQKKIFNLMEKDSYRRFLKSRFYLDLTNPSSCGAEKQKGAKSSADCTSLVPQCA

Biological target: RGS4Δ51N cleaved from the MBP-His6 construct (UniProt P49799)
Assay: MALDI MS of the covalent adduct; 5 μM RGS4Δ51N pretreated with 250 μM 5nd (50:1) or DMSO, desalting column, MicroMX MALDI MS, positive ion mode; both purified

With YWCKGLCK (C-terminal amide; disulfide bridge (S-S) between the two Cys; free N-terminus) [Peptide 5nd (Tyr-Trp-c[Cys-Lys-Gly-Leu-Cys]-Lys-NH2, S-S)] as the binder, how does the binding read?
Its binding is “binds”.
